Counter-ions that a name gives are not always drawn. The list shows a part of the results. Baselines shift from plate to plate; read single values as rough.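 The cells are HEK293 lines stably expressing B-domain-deleted factor VIII fused to Gaussia luciferase, either wild type or a misfolding-prone missense mutant. Each score is mean luminescence from triplicate wells minus the DMSO mean, divided by the DMSO standard deviation; a score of 2 or more counts as a hit, and low scores may reflect lower secretion or poorer cell viability.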
Columns and labels:
HEK293 WT BDD-FVIII-Gluc = experiment: secreted FVIII-Gluc luciferase Z-score vs DMSO control; higher = more FVIII-Gluc secretion; conditions: 5 µM; 24 h
[1] = test system: HEK293 p.N1941S BDD-FVIII-Gluc; experiment: as above; conditions: 5 µM; 24 h

Row | Structure (SMILES) | secreted FVIII-Gluc luciferase Z-score (HEK293 WT BDD-FVIII-Gluc) | secreted FVIII-Gluc luciferase Z-score [1]
1 | O=C(O[C@H]1C[C@H]2CC[C@@H](C1)[N+]21CCCC1)C(O)(c1ccccc1)c1ccccc1 [Trospium chloride (Sanctura)] | inactive: -0.532 | inactive: 0.563
2 | CC(C)N(CCC(C(N)=O)(c1ccccc1)c1ccccn1)C(C)C (stereo unspecified) [Disopyramide Phosphate] | inactive: 1.36 | inactive: 0.858
3 | CC(C)N(CCNC(=O)CN1CCCC1=O)C(C)C [Pramiracetam] | inactive: -2.29 | inactive: -1.02
4 | CC(C)=CC1C(C(=O)OCc2cccc(Oc3ccccc3)c2)C1(C)C (stereo unspecified) [Phenothrin] | inactive: -0.222 | inactive: 1.37
5 | Cc1cc(C(C#N)c2ccc(Cl)cc2)c(Cl)cc1NC(=O)c1cc(I)cc(I)c1O (stereo unspecified) [Closantel] | active: 2.52 | inactive: -0.158
6 | OC(c1ccccc1)(c1ccccc1)C1CCNCC1 [Azacyclonol] | inactive: 0.0867 | inactive: -2.85
7 | NCC(O)c1ccc(O)cc1 (racemic) [(+,-)-Octopamine HCl] | inactive: -1.07 | inactive: 0.563
8 | O=P1(N(CCCl)CCCl)NCCCO1 (stereo unspecified) [Cyclophosphamide monohydrate] | inactive: -1.42 | inactive: -1.46
9 | Nc1nc(N)nc(NC2CC2)n1 [Cyromazine] | inactive: -1.82 | inactive: 1.55
10 | CC[C@@]1(O)C(=O)OCc2c1cc1n(c2=O)Cc2cc3ccccc3nc2-1 [Camptothecin] | inactive: -13.9 | inactive: -5.81
11 | Cc1cccc([C@H](C)c2c[nH]cn2)c1C [Dexmedetomidine HCl (Precedex)] | inactive: 1.33 | inactive: -0.941
12 | C=C1CC[C@@]2(O)[C@H]3Cc4ccc(O)c5c4[C@@]2(CCN3CC2CC2)[C@H]1O5 [Nalmefene HCl] | inactive: -0.142 | inactive: 1.5
13 | C[N+]1(C)CCCC(OC(=O)C(O)(c2ccccc2)c2ccccc2)C1 (stereo unspecified) [Mepenzolate Bromide] | inactive: -0.212 | inactive: 0.99
14 | CN(C)[C@@H]1C(=O)C(C(N)=O)=C(O)[C@@]2(O)C(=O)C3=C(O)c4c(O)cccc4[C@@](C)(O)[C@H]3C[C@@H]12 [Tetracycline HCl] | inactive: 0.706 | inactive: -1.14
15 | CC(=O)OC1CN2CCC1CC2 (stereo unspecified) [Aceclidine HCl] | inactive: -0.287 | inactive: 1.21
16 | Cc1cccc([C@H](C)c2c[nH]cn2)c1C [Dexmedetomidine] | inactive: -0.183 | inactive: 0.826
17 | NCCc1c[nH]c2ccc(O)cc12 [Serotonin HCl] | inactive: 1.01 | inactive: 0.404
18 | CN1[C@@H]2CC[C@H]1C[C@@H](OC(=O)C(CO)c1ccccc1)C2 (stereo partly specified) [Atropine sulfate monohydrate] | inactive: -0.572 | inactive: -2.59
19 | C[C@]12CC[C@H](O)CC1=CC[C@@H]1[C@@H]2CC[C@]2(C)C(=O)CC[C@@H]12 [Dehydroepiandrosterone (DHEA)] | inactive: -2.95 | inactive: -0.314
20 | c1ccc2c(c1)sc1ccccc12 [Dibenzothiophene] | inactive: -2.85 | inactive: -0.162
21 | CCC(COC(=O)c1cc(OC)c(OC)c(OC)c1)(c1ccccc1)N(C)C (stereo unspecified) [Trimebutine] | inactive: 0.844 | inactive: -0.591
22 | Cc1cc(O)ccc1Cl [Chlorocresol] | inactive: 0.108 | inactive: 0.132
23 | COc1ccc(C(=O)N2CCCC2=O)cc1 [Aniracetam] | inactive: 1.72 | inactive: -0.242

Some of the entries so far, tab-delimited.
Row	Structure (SMILES)	secreted FVIII-Gluc luciferase Z-score (HEK293 WT BDD-FVIII-Gluc)	secreted FVIII-Gluc luciferase Z-score [1]
16	Cc1cccc([C@H](C)c2c[nH]cn2)c1C [Dexmedetomidine]	inactive: -0.183	inactive: 0.826
17	NCCc1c[nH]c2ccc(O)cc12 [Serotonin HCl]	inactive: 1.01	inactive: 0.404
18	CN1[C@@H]2CC[C@H]1C[C@@H](OC(=O)C(CO)c1ccccc1)C2 (stereo partly specified) [Atropine sulfate monohydrate]	inactive: -0.572	inactive: -2.59
19	C[C@]12CC[C@H](O)CC1=CC[C@@H]1[C@@H]2CC[C@]2(C)C(=O)CC[C@@H]12 [Dehydroepiandrosterone (DHEA)]	inactive: -2.95	inactive: -0.314

From the supplement of paper PMC12024529
